For 1 substance, binding results are on record in paper PMC12402101.

Results are given in words; binding and its absence hold for the method and conditions named. Some entries that bind do so weakly or less than the wild type.

The test concerns the target …ON …3 (VIN3) fused to SYFP2 (Arabidopsis thaliana) (UniProt Q9FIE3). Kind of test: single-molecule tracking with stepwise photobleaching (SlimVar microscopy); single colour, in nuclei of live Arabidopsis root tips at working depths of 20 ± 10 µm; stoichiometry = initial track intensity divided by characteristic molecular brightness; periodicity = most common interval between neighbouring peaks of the stoichiometry distribution; 20 ms exposure (VIN3-GFP, VRN5-YFP) or 10 ms (VIN3-SYFP2); timepoints NV, V2W, V6W, V6W+T14 of vernalisation.

Take “…ON …3 (VIN3) fused to SYFP2 (from UniProt Q9FIE3 1-620)”: the binding entry is given as “binds”.
